From US20250090699A1 (Novartis AG, priority 2023, published 2025)

Assay: general procedure: Fmoc solid-phase peptide synthesis; H-Gly-Cl-Trt resin, H-Gly-Trt-Amide-MBHA resin or H-Gly-HMPB-Bal-MBHA resin; HATU, PyAOP, PyOxim, DIC/Oxyma Pure, DIEA as base
Details: for conjugation yield: conjugation step; for conjugation yield / step yield / isolated mass / isolated yield: TFA salt; for step yield: late stage modification step; for isolated mass / isolated yield: whole synthesis
[1] = head-to-tail ring, sequence written open

2,2′,2″-(10-((R)-4-((2-(4-(((9S,12S,15S,18S,24S,27S,32aR)-18-((1H-indol-3-yl)methyl)-9-benzyl-27-(carboxymethyl)-24-(4-hydroxybenzyl)-8-methyl-1,4,7,10,13,16,19,22,25,28-decaoxo-15-pentyldotriacontahydropyrrolo[1,2-a][1,4,7,10,13,16,19,22,25,28]decaazacyclotriacontin-12-yl)methyl)phenoxy)ethyl)amino)-1-carboxy-4-oxobutyl)-1,4,7,10-tetraazacyclododecane-1,4,7-triyl)triacetic acid TFA salt
conjugation yield: 46%

2-(4-((4-((6S,9S,15S,18S,21S,24S,29aS,34aR)-15-((1H-indol-3-yl)methyl)-21-(4-((2-(2-(2-aminoethoxy)ethoxy)acetamido)methyl)benzyl)-24-benzyl-6-(carboxymethyl)-25-methyl-5,8,11,14,17,20,23,26,29,34-decaoxo-18-(2-propoxyethyl)dotriacontahydro-1H,5H-dipyrrolo[1,2-a:1′,2′-b1][1,4,7,10,13,16,19,22,25,28]decaazacyclotriacontin-9-yl)butyl)carbamoyl)piperazin-1-yl)acetic acid TFA salt
step yield: 50%

2-((3S,9S,12S,15S,18S,24S,27S,32aR)-18-((1H-indol-3-yl)methyl)-3-(4-aminobutyl)-9-benzyl-15-(3-((S)-2-cyano-4,4-difluoropyrrolidin-1-yl)-3-oxopropyl)-12,24-bis(4-hydroxybenzyl)-8-methyl-1,4,7,10,13,16,19,22,25,28-decaoxodotriacontahydropyrrolo[1,2-a][1,4,7,10,13,16,19,22,25,28]decaazacyclotriacontin-27-yl)acetic acid TFA salt
isolated mass (scale 100 μmol): 16.5 mg
isolated yield (scale 100 μmol): 11%

2-((3S,9S,12S,15S,18S,24S,27S,32aR)-18-((1H-pyrrolo[2,3-b]pyridin-3-yl)methyl)-3-(4-aminobutyl)-9-benzyl-12,24-bis(4-hydroxybenzyl)-8-methyl-1,4,7,10,13,16,19,22,25,28-decaoxo-15-pentyldotriacontahydropyrrolo[1,2-a][1,4,7,10,13,16,19,22,25,28]decaazacyclotriacontin-27-yl)acetic acid TFA salt
isolated mass (scale 100 μmol): 56.3 mg
isolated yield (scale 100 μmol): 38%

2-((9S,12S,15S,18S,24S,27S,32aR)-18-((1H-indol-3-yl)methyl)-9-benzyl-24-(2-(4-(carboxymethyl)piperazine-1-carboxamido)ethyl)-12-(4-hydroxybenzyl)-8-methyl-1,4,7,10,13,16,19,22,25,28-decaoxo-15-pentyldotriacontahydropyrrolo[1,2-a][1,4,7,10,13,16,19,22,25,28]decaazacyclotriacontin-27-yl)acetic acid TFA salt
step yield: 43%

2-((9S,12S,15S,18S,24S,27S,32aR)-18-((1H-indol-3-yl)methyl)-9-benzyl-24-(4-(4-(carboxymethyl)piperazine-1-carboxamido)butyl)-12-(4-hydroxybenzyl)-8,23-dimethyl-1,4,7,10,13,16,19,22,25,28-decaoxo-15-pentyldotriacontahydropyrrolo[1,2-a][1,4,7,10,13,16,19,22,25,28]decaazacyclotriacontin-27-yl)acetic acid TFA salt
cyclisation yield (cyclisation step, on A3-1, TFA salt): 34%

2-((9S,12S,15S,18S,24S,27S,32aR)-18-((1H-indol-3-yl)methyl)-12-(4-((2-(2-(2-aminoethoxy)ethoxy)acetamido)methyl)benzyl)-9-benzyl-24-(4-(4-(carboxymethyl)piperazine-1-carboxamido)butyl)-8-methyl-1,4,7,10,13,16,19,22,25,28-decaoxo-15-(2-propoxyethyl)dotriacontahydropyrrolo[1,2-a][1,4,7,10,13,16,19,22,25,28]decaazacyclotriacontin-27-yl)acetic acid TFA salt
isolated mass (scale 1.80 mmol): 1041 mg
isolated yield (scale 1.80 mmol): 33%

Gly-Gly-NMePhe-F4(amMeGlyDOTA)-Ahp-Trp-Gly-Tyr-Asp-D-Pro
conjugation yield [1]: 46%

Gly-Gly-NMePhe-F(4AmAc)-Ahp-Trp-Gly-Tyr-Asp-D-Pro
step yield [1]: 82%

Gly-Gly-NMePhe-F(4amPEG2NHAAZTA)-Ao-Trp-Gly-K(COpipzaa)-Asp-D-Pro
step yield (head-to-tail ring): 32% yield

Gly-Gly-NMePhe-F(4amPEG2NHDOTA)-Aoc-Trp-Gly-K(COpipzaa)-Asp-D-Pro
conjugation yield (head-to-tail ring): 70%

Gly-Gly-NMePhe-F(4amPEG2NHDOTA-Ga)-Aoc-Trp-Gly-K(COpipzaa)-Asp-D-Pro [C44]
step yield (head-to-tail ring): 82% yield

Gly-Gly-NMePhe-F(4amPEG2NHDOTA-Lu)-Aoc-Trp-Gly-K(COpipzaa)-Asp-D-Pro [C1]
step yield (head-to-tail ring): 78% yield

Gly-Gly-NMePhe-Tyr-Ahp-Trp-Gly-Tyr-Asp-D-Pro
step yield: 59%

Lys-Gly-NMePhe-Tyr-Aoc-Trp-Gly-Tyr-Asp-D-Pro
isolated yield: 16%
